Measured values as given in paper PMC11015564.

Experiments:
[1] = target: BbOsrR2::Myc fusion protein (Beauveria bassiana) (UniProt J5JXE0); assay: co-IP; lysates of B. bassiana mycelia co-expressing the tagged proteins (wild type, ΔBbOsrR1, ΔBbOsrR3 or ΔBbClp1 background), grown in ¼ SDY or ¼ SDY with 4 mM H2O2 or 60 μM MND for 30 min; Anti-c-Myc, Anti-GFP or HisPur Ni-NTA magnetic beads, 4 °C overnight; Western blotting with anti-GFP, anti-Myc and anti-His antibodies
[2] = target: BbOsrR3::His fusion protein (Beauveria bassiana) (UniProt J5K4G2); assay: as above

Substance | binding [1] | binding [2]
BbClp1::eGFP fusion protein (from UniProt J5JJA4) | binds | 
BbOsrR2::Myc fusion protein (from UniProt J5JXE0) |  | binds
BbOsrR3::His fusion protein (from UniProt J5K4G2) | binds | 

These are yes or no findings as the source states them, for the method shown. In cells and extracts the contact can be indirect. Binding calls can cover weak binding; strength is not graded here.
